Test: Dissociation index (side-effect endpoint / anti-inflammatory endpoint)
Set-up: species or system mice
Conditions: for Dissociation index OC/TNFα (ED50): osteocalcin suppression ED50 / TNFα suppression ED50; for Dissociation index OC/TNFα (ED80): osteocalcin suppression ED80 / TNFα suppression ED80
[1] = across mice in different models, plasma exposure to normalize
[2] = data compared in mice in the same model

Cc1c(NC(=O)c2ccc3c(c2)CC[C@@H]2C[C@@](O)(C(F)(F)F)CC[C@@]32Cc2ccccc2)ccc[n+]1[O-] [Comparator G, reference compound]
Dissociation index OC/TNFα (ED50): 0.39
Dissociation index OC/TNFα (ED80): 2.18

Cc1ncccc1NC(=O)c1ccc2c(c1)C=C[C@@H]1C[C@@](O)(C(F)(F)F)CC[C@@]21Cc1ccccc1 [Comparator I, (4βS,7R,8αS)-4β-benzyl-7-hydroxy-N-(2-methylpyridin-3-yl)-7-(trifluoromethyl)-4β,5,6,7,8,8α-hexahydrophenanthrene-2-carboxamide]
Dissociation index OC/TNFα (ED50): 7.12
Dissociation index OC/TNFα (ED80): >3.67

Cc1ncc(NC(=O)c2ccc3c(c2)CC[C@@H]2C[C@@](O)(CCC(F)(F)F)CC[C@@]32Cc2ccccc2)c(C)n1 [Comparator J, (4βS,7S,8αR)-4β-benzyl-N-(2,4-dimethylpyrimidin-5-yl)-7-hydroxy-7-(3,3,3-trifluoropropyl)-4β,5,6,7,8,8α,9,10-octahydrophenanthrene-2-carboxamide]
Dissociation index OC/TNFα (ED50): 8.11
Dissociation index OC/TNFα (ED80): 4.53

Cc1ncccc1NC(=O)c1ccc2c(c1)CC[C@@H]1C[C@@](O)(C(F)(F)F)CC[C@@]21Cc1ccccc1 [Example 1, (4βS,7R,8αR)-4β-benzyl-7-hydroxy-N-(2-methylpyridin-3-yl)-7-(trifluoromethyl)-4β,5,6,7,8,8α,9,10-octahydrophenanthrene-2-carboxamide]
Dissociation Index BFR/disease incidence, EAUC50 [1]: 6.8
Dissociation Index BFR/disease incidence, EAUC80 [1]: 15.5
Dissociation Index BFR/disease severity, EAUC50 [1]: 3.0
Dissociation Index BFR/disease severity, EAUC80 [1]: 8.2
Dissociation Index BFR/ TNFα, EAUC50 [2]: 1.2
Dissociation Index BFR/ TNFα, EAUC80 [2]: 4.7
Dissociation Index OC/TNFα, EAUC50 [2]: 5.9
Dissociation Index OC/TNFα, EAUC80 [2]: 12.7
Corrected dissociation indices (DI) BFR / TNFα, EAUC50 (data set 2): 16.0
Corrected dissociation indices (DI) BFR / TNFα, EAUC80 (data set 2): 7.6
Corrected dissociation indices (DI) BFR / disease incidence, EAUC50 (data set 2): 14.5
Corrected dissociation indices (DI) BFR / disease incidence, EAUC80 (data set 2): 10.6
Corrected dissociation indices (DI) BFR / disease severity, EAUC50 (data set 2): 13.0
Corrected dissociation indices (DI) BFR / disease severity, EAUC80 (data set 2): 15.5
Corrected dissociation indices (DI) OC / TNFα, EAUC50 (data set 2): 8.6
Corrected dissociation indices (DI) OC / TNFα, EAUC80 (data set 2): 7.4
Dissociation index OC/TNFα (ED50) (listed as Example 1 free base): 6.33
Dissociation index OC/TNFα (ED80) (listed as Example 1 free base): >5.49
Corrected Dissociation Index BFR/TNFα, EAUC50 (relative to prednisolone): 7.8
Corrected Dissociation Index BFR/disease incidence, EAUC50 (relative to prednisolone): 15.5
Corrected Dissociation Index BFR/disease severity, EAUC50 (relative to prednisolone): 16.4
Corrected Dissociation Index OC/TNFα, EAUC50 (relative to prednisolone): 8.4
Corrected Dissociation Index OC/TNFα, EAUC80 (relative to prednisolone): 7.5

From patent EP2114888B1, “TRICYCLIC COMPOUNDS AND THEIR USE AS GLUCOCORTICOID RECEPTOR MODULATORS” (priority 2007, dated 2008)
